Results reported in patent US20120309792A1, “TETRAZOLE DERIVATIVES AS NICOTINIC ACETYLCHOLINE RECEPTOR MODULATORS” (NEUROSEARCH A/S, priority 2009, published 2012).
For at least one compound, name, drawing or mass did not settle the structure.

The chains behind the UniProt entries cited, without tags or fusion partners. Residues count along the entry.
UniProt P17787, 26-502: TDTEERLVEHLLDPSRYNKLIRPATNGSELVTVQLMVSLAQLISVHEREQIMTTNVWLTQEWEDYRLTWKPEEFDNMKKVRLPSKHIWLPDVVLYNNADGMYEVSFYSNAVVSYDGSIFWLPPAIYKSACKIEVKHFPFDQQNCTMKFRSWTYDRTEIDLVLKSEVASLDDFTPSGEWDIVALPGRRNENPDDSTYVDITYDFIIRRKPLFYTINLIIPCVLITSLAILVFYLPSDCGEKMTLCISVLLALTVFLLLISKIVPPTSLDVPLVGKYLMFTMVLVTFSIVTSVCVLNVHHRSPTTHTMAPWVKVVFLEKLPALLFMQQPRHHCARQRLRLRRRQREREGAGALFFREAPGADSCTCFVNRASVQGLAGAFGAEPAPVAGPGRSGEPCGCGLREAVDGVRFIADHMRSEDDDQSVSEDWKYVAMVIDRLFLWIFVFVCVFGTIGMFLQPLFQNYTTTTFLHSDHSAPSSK
UniProt P43681, 29-627 limits assumed: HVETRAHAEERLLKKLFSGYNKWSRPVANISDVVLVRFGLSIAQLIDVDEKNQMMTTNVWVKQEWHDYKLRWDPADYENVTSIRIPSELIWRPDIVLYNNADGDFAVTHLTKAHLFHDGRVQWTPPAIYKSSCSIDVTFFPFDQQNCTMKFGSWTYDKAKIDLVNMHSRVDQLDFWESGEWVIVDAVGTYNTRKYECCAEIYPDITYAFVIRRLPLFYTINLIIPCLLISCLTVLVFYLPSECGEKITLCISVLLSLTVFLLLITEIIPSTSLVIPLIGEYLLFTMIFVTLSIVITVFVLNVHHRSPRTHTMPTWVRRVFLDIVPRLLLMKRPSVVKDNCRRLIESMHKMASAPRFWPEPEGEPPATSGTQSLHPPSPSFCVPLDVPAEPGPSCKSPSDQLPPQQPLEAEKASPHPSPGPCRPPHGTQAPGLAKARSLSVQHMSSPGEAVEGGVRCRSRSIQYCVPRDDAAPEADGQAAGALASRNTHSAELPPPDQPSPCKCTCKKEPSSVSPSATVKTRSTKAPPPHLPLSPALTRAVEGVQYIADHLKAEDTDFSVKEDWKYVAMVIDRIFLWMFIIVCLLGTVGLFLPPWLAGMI

Biological target: T1, human nicotinic acetylcholine receptor subtype a4b2 (Homo sapiens, UniProt P17787+P43681)
T1 construct: expressed in transfected cells
Experiment: Characterization of hα4β2 positive allosteric modulators using FLIPR
Assay type: cell-based
Settings: shift of nicotine pEC50 in presence of 10 μM test compound; HEK-293 cells stably expressing hα4β2; fluo-4 calcium FLIPR
Description: Characterization of hα4β2 Positive Allosteric Modulators Using FLIPR
The modulator activity is determined as a fluorescence-based assay using a Fluorometric Imaging Plate Reader (FLIPR) as described below in more detail.
HEK-hα4β2 cells were seeded on poly-D-lysin-coated 384 well microtiter plates and allowed to proliferate for 24 h. Dye loading was performed by incubating cells with 2 μM fluo-4/AM for 1.5 h at room temperature. Dye not taken up by the cells was removed by aspiration, followed by three washing cycles with NMDG Ringer buffer (containing in mM: 140 NMDG, 5 KCl, 1 MgCl2, 10 CaCl2, 10 HEPES, pH 7.4). The microtiter plates were then placed in the FLIPR and subjected to test solutions.
Full concentration-response curves of nicotine were generated in the absence and presence test compound. Background-subtracted nicotine-mediated calcium responses were determined and normalized to maximal nicotine control responses. Nicotine potencies (expressed as pEC50) were calculated and the difference between the functional potency in the absence and presence of test compound was determined (Δ pEC50).
The modulatory activity of compounds of the invention determined as ΔpEC50 values in the presence of 10 μM of test compound are presented in Table 1 below.

How did the ΔpEC50 turn out when `Clc1cncc(-c2nnn(-c3ccc(Cl)nc3)n2)c1` [Compound B26, 2-chloro-5-[5-(5-chloro-3-pyridyl)tetrazol-2-yl]pyridine] was run?
Its ΔpEC50 is 0.95.
